## Library screening results

Data taken from ChEMBL document CHEMBL3988442, “University of Dundee, Small-Polar-MMV Screening Library” (2021).

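Viability assay of Plasmodium falciparum sporozoites; the read-out is not stated. The concentration is filed as 10 mM, unlikely as a test dose, so the dose is not known. Direction is inferred from retests: higher values go with lower viability. Strong results were mostly tested again. About 34,000 compounds were tested under these conditions; 0.84% (about 280) showed 50% or more at least once.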

Results are given as percent effect. The controls that fix the scale are not given in the record; negative values are as filed. This is an unselected part of the compounds tested. Two or more numbers in one place are separate tests of the same structure; such repeats can differ widely.

* Cc1cc(C(=O)N2CCn3cc(CN4CCOCC4)nc3C2)no1.O=C(O)C(F)(F)F | -6.443%
* COCCNC(=O)Nc1cccc2c1CCN(S(C)(=O)=O)C2 | -5.882%
* CCc1cnc(CN(C)C2CCN(CCc3ccccn3)C2)o1 (configuration not stated) | -16.13%
* CC(C)c1ccc(O)c(C(=O)N2CCN(Cc3cscn3)CC2)c1 | 16.62%
* Cc1ccc(C2CCCN(C(=O)c3cnn(C)c3)C2)nc1 (configuration not stated) | 0.7851%
* CNc1cc(N2CCCC2CNCc2ccc(Cl)o2)ncn1 (configuration not stated) | 1.127%
* CC(CNC(=O)N1CCN(Cc2ccon2)CC1)Cc1cccs1 (configuration not stated) | -23.55%
* [H][C@@]12CCCO[C@]1([H])[C@H](NC(=O)c1cscn1)CN2c1ncccn1 | -8.881%
* Fc1ccc(N2CCOC(Cc3cccnc3)C2)cc1 (configuration not stated) | 6.273%
* CC(C)C(=O)N1CCCc2c(cnn2-c2ccccc2)C1 | -6.017%
* CN(C)CC(=O)N1Cc2nc(C(=O)NCc3ccccc3)oc2C1 | 7.407%
* Cc1nc(C)c(C(=O)N2CCCC(C(=O)c3nccn3C)C2)s1 (configuration not stated) | -9.282%
* O=C(O)C(F)(F)F.[H][C@@]12CCCO[C@]1([H])[C@@H](OCC(=O)N(C)C)CN2Cc1ccc(F)cc1 | -3.053%
* Cc1n[nH]c(C2CN(C(=O)c3cc(C4CC4)[nH]n3)CCO2)n1 (configuration not stated) | -17.11% and -28.25% and 3.006%
* O=C(NCc1ccco1)N1CCCCC1c1nc(C2CC2)no1 (configuration not stated) | -16.21%
* CN(C)Cc1cnc2n1CCN(Cc1ccsc1)CC2.O=C(O)C(F)(F)F.O=C(O)C(F)(F)F | -10.38%
* Cc1ccc(CN(C)C(=O)c2ccc(NC3CC3)nc2)o1 | -2.424%
* O=C(CN1CCCC1Cn1cncn1)NCCOc1ccccc1 (configuration not stated) | 1.554%
* CSc1ccc(-c2cc(CN)nc3ccnn23)cc1.Cl | 10.25%
* Cc1ccc(S(C)(=O)=O)cc1C(=O)NS(=O)(=O)c1cccs1 | -16.09%
* CNC(=O)c1cccc(C2CNCCN2C(=O)C2CCNCC2)c1 (configuration not stated) | -2.732%
* Cc1ccsc1[C@@H]1CCN(C(=O)c2cc3ccccc3[nH]2)C[C@H]1O | 2.464%
* O=C(Cn1ccc2ccc(F)cc21)NCc1ccc(C(=O)O)cc1 | 15.89%
* COc1ccsc1C(=O)N1CCCC(n2nc(C)cc2C)C1 (configuration not stated) | 3.056%
* CCn1c(CC2CCN(C(=O)C3COCCO3)CC2)nn(C)c1=O (configuration not stated) | 4.085%
* O=C(CN(Cc1ccccc1)CC1CCOCC1)NC(=O)NC1CC1 | 0.4677%
* c1cnc(-c2nc(C3CCOC3)no2)cn1 (configuration not stated) | -2.632%
* O=C(CC1CC1)N1CCC2(CC1)CN(c1ccsc1)C(=O)CO2 | 3.694%
* NCC1(c2cccc(C(F)(F)F)c2)CCCCC1 | 7.456%
* COc1cc2cc(C)c(SCCN3CCCC3)nc2cc1OC.Cl | -1.811%
* COCCNS(=O)(=O)c1cccc2c1CN(C(=O)c1ccccc1)CC2 | 8.959%
* Cc1cncnc1C1CCN(CC2CC2)CC1 | 1.471%
* CCOCCOC(C)C(=O)NCc1cn2cc(Br)ccc2n1 (configuration not stated) | -8.23%
* Cc1cccc(C(=O)NC2CCN(c3cnn(C)c3)C2=O)n1 (configuration not stated) | -0.9227%
* COc1c(C)cnc(CN2CCC(N(C)C(=O)C3CC3)CC2)c1C | 5.012%
* Cc1ccc(N2CCCC(N3CCC(N(C)C)CC3)C2=O)cc1 (configuration not stated) | -1.6%
* Cn1ccnc1CN1CCC(F)(F)C2(CCN(c3cnccn3)C2)C1.O=C(O)C(F)(F)F (configuration not stated) | 0.08953%
* Cl.Fc1cccc(F)c1Cn1c(C2CCNCC2)cc2cccnc21 | 5.89%
* COc1ncccc1NC(=O)C1CC1 | 5.184%
* Cc1ccc(C(N)c2cccc(S(C)(=O)=O)c2)c(C)c1.Cl (configuration not stated) | -9.007%
* NC(=O)CN(C(=O)Cc1cccc(C(F)(F)F)c1)C1CCCC1 | 5.943%
* COc1ccc(C(=O)N(C)Cc2cccc(C#N)c2)c(OC)c1OC | -6.99%
* Cc1nc(C2CCCN2Cc2cc(=O)n(C)c(=O)n2C)no1 (configuration not stated) | -15.12%
* COc1ccc(CN(C)c2ncc(S(N)(=O)=O)s2)c(OC)c1 | -19.66%
* CCc1nc(CN2CCCN(C(=O)c3cn[nH]c3CC)CC2)cs1 | 2.415%
* Cc1ccc(C(CNCc2nccn2C)N2CCOCC2)s1 (configuration not stated) | -6.978% and -3.81% and 1.207%
* CN(C)C(=O)c1cccc(C2CCN(c3ncccn3)CC2)n1 | 1.726%
* c1ccc(-c2nccc(CNCC3CCCN3c3cccnn3)n2)cc1 (configuration not stated) | -13.52%
* Cl.Cl.O=C(NCc1cncc2c1CCN(Cc1cccs1)C2)C1CC1 | 1.038%
* Cn1c(C(N)=O)ccc1-c1ccccc1 | 5.451%
* Cc1ccc(-c2nc(CN3CCN(S(=O)(=O)N(C)C)CC3)cs2)o1 | 26.48% and 7.637% and -7.301%
* Cl.O=C(NCCO)c1sc2ncccc2c1C1CNCCO1 (configuration not stated) | 0.5166%
* CCOc1cc(C)nc(N2CCN(C(=O)c3ccnn3C)CC2)n1 | -12.78%
* O=C(O)C(F)(F)F.O=C(O)C(F)(F)F.c1cnc(N2CCC3(CCN(CC4CCCC4)CC3)C2)nc1 | -2.847%
* Cc1cc2nc(C3CCCCC3)c(-c3ccnc(NCCO)n3)cn2n1 | -10.08%

For reference, 5 entries once more:

| SMILES | percent effect |
|---|---|
| `Cc1nc(C)c(C(=O)N2CCCC(C(=O)c3nccn3C)C2)s1` (configuration not stated) | -9.282 |
| `O=C(Cn1ccc2ccc(F)cc21)NCc1ccc(C(=O)O)cc1` | 15.89 |
| `CCn1c(CC2CCN(C(=O)C3COCCO3)CC2)nn(C)c1=O` (configuration not stated) | 4.085 |
| `NCC1(c2cccc(C(F)(F)F)c2)CCCCC1` | 7.456 |
| `CC(C)C(=O)N1CCCc2c(cnn2-c2ccccc2)C1` | -6.017 |